The record followed here is article PMC9220252.

Chains of the proteins cited; added tags and fusions are not shown. Lines headed by an entry give the natural chain unless they say otherwise; changes in a name come on top. A line that says so, or that is headed by a name, gives the form on record, which may keep a tag or linker.
Pyruvate kinase M2 (PKM2), PC12 cells (P11980-2, form named): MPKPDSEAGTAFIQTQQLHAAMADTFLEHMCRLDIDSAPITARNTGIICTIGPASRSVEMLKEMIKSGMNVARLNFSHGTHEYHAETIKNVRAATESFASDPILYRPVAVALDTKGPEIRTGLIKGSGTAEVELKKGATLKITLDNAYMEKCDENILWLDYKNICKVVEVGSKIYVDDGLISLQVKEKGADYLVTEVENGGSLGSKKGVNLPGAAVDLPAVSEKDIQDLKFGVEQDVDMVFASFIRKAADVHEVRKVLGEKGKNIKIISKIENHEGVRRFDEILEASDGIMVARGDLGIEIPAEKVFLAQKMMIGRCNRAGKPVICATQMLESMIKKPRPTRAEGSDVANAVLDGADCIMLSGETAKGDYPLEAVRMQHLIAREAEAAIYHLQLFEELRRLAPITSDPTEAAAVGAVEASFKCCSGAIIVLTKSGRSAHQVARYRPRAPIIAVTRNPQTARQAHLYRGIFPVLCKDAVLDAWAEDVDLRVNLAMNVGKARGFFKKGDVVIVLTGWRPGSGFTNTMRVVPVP

No constants are given. Whether binding was seen depends on the method and setting. Binding seen in cells or lysates may run through a third protein. Here binding means that the protein was enriched with, or labelled near, the bait; the list need not be complete. Sequences can lack the tags named with a protein.

In this assay the target is T1, GST-PDHA1 S293D (UniProt P08559).
T1 sequence: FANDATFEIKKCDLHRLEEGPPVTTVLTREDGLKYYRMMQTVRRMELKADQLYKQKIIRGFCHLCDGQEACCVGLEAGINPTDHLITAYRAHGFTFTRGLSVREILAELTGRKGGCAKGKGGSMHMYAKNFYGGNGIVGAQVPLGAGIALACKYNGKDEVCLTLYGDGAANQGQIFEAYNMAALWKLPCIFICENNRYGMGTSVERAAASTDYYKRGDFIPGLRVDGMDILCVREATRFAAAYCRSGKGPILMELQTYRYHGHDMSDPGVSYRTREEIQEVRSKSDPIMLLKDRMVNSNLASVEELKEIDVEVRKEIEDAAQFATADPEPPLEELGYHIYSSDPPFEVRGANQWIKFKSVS
Nature of the assay: affinity purification with mass spectrometry; purified GST-PDHA1 WT, S293D and S293A beads mixed with lysate of PC12 cells (NGF 100 ng/mL) overnight at 4 °C; SDS-PAGE; MALDI-TOF peptide mass fingerprinting; only the target purified.

For “Pyruvate kinase M2 (PKM2), PC12 cells (from UniProt P11980-2 1-531)”, the binding result is listed as “binds”.
